Test results: publication PMC5765009

Sequences of proteins named here, by UniProt entry; tags and fusion partners are left off. Residues count along the entry.
UniProt P11021, residues 19-654: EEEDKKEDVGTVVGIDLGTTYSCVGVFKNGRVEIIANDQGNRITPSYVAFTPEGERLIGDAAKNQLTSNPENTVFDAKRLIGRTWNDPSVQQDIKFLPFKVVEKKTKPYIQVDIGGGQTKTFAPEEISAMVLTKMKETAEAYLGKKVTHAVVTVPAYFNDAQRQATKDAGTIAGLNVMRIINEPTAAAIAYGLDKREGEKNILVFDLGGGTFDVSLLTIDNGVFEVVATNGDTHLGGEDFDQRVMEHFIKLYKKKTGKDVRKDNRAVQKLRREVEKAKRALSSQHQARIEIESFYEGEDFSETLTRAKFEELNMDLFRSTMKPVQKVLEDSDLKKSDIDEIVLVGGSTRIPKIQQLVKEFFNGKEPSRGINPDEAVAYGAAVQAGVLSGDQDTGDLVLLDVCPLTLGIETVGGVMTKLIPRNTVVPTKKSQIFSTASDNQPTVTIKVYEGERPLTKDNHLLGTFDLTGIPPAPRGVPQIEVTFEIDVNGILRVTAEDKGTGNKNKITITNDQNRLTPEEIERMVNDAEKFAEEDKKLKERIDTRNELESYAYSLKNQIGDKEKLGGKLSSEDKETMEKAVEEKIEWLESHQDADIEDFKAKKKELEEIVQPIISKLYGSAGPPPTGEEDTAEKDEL
UniProt P50990: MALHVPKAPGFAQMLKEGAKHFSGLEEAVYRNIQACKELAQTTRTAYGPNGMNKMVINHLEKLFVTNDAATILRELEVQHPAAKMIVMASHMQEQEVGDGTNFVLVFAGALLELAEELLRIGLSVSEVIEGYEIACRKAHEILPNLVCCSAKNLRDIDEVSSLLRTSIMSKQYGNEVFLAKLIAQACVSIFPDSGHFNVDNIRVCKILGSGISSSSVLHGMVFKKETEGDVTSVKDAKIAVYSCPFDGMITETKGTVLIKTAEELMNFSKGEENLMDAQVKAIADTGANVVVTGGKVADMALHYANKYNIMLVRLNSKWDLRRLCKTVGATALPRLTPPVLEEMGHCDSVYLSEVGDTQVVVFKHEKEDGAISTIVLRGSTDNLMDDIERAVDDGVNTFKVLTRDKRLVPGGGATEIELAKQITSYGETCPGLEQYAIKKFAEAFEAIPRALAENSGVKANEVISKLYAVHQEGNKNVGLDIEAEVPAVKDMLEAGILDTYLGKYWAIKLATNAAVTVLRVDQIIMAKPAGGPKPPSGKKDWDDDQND
UniProt P28799, residues 18-593: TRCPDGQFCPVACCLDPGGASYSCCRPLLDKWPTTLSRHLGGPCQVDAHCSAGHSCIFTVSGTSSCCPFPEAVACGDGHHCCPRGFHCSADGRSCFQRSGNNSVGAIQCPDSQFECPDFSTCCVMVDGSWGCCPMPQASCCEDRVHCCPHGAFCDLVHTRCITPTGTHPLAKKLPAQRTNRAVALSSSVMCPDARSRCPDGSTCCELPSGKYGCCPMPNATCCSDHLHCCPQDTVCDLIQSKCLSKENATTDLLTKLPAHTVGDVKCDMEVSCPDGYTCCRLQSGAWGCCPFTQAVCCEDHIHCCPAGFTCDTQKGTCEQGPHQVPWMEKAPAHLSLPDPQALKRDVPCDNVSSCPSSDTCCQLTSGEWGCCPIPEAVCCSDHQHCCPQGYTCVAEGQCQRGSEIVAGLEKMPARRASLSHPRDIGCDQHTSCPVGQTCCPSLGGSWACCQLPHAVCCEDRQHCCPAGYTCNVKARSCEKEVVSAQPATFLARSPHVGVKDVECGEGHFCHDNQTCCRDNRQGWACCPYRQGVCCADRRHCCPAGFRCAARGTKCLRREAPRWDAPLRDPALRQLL
UniProt Q99873: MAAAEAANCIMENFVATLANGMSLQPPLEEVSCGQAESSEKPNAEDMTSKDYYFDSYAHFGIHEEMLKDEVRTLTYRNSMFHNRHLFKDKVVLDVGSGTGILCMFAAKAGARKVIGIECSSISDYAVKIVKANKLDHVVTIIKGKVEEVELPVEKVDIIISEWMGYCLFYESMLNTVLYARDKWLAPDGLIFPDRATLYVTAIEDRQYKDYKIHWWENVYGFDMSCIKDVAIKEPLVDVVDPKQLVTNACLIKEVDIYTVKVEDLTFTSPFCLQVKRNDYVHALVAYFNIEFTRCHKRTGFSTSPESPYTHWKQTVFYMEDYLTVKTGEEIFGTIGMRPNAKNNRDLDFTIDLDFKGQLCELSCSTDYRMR

Target: Glucose regulated protein 78 (GRP78) (human (endogenous in OECM1, FaDu, BM2, NPC076)) (UniProt P11021)
Test: affinity purification with mass spectrometry; immunoprecipitates of PM fractions of OECM1 and FaDu cells with anti-GRP78 antibody against isotype control, 2% CHAPS; tryptic digests labelled with formaldehyde-D2 / formaldehyde, LC-MS/MS, Mascot with SwissProt 2010; candidates with D4/H4 ratio greater than 1.000

| Molecule | binding |
| --- | --- |
| TCP-1 theta (from UniProt P50990 1-548) | binds |
| Serpin H1 (protein, UniProt P50454 19-418) AEVKKPAAAAAPGTAEKLSPKAATLAERSAGLAFSLYQAMAKDQAVENILVSPVVVASSLGLVSLGGKATTASQAKAVLSAEQLRDEEVHAGLGELLRSLSNSTARNVTWKLGSRLYGPSSVSFADDFVRSSKQHYNCEHSKINFRDKRSALQSINEWAAQTTDGKLPEVTKDVERTDGALLVNAMFFKPHWDEKFHHKMVDNRGFMVTRSYTVGVMMMHRTGLYNYYDDEKEKLQIVEMPLAHKLSSLIILMPHHVEPLERLEKLLTKEQLKIWMGKMQKKAVAISLPKGVVEVTHDLQKHLAGLGLTEAIDKNKADLSRMSGKKDLYLASVFHATAFELDTDGNPFDQDIYGREELRSPKLFYADHPFIFLVRDTQSGSLLFIGRLVRPKGDKMRDEL | binds |
| BBS4 (protein, UniProt Q96RK4 1-519) MAEERVATRTQFPVSTESQKPRQKKAPEFPILEKQNWLIHLHYIRKDYEACKAVIKEQLQETQGLCEYAIYVQALIFRLEGNIQESLELFQTCAVLSPQSADNLKQVARSLFLLGKHKAAIEVYNEAAKLNQKDWEISHNLGVCYIYLKQFNKAQDQLHNALNLNRHDLTYIMLGKIHLLEGDLDKAIEVYKKAVEFSPENTELLTTLGLLYLQLGIYQKAFEHLGNALTYDPTNYKAILAAGSMMQTHGDFDVALTKYRVVACAVPESPPLWNNIGMCFFGKKKYVAAISCLKRANYLAPFDWKILYNLGLVHLTMQQYASAFHFLSAAINFQPKMGELYMLLAVALTNLEDIENAKRAYAEAVHLDKCNPLVNLNYAVLLYNQGEKKNALAQYQEMEKKVSLLKDNSSLEFDSEMVEMAQKLGAALQVGEALVWTKPVKDPKSKHQTTSTSKPASFQQPLGSNQALGQAMSSAAAYRTLPSGAGGTSQFTKPPSLPLEPEPAVESSPTETSEQIREK | binds |
| GRXCR2 (protein, UniProt A6NFK2 1-248) MEDPEKKLNQKSDGKPRKVRFKISSSYSGRVLKQVFEDGQELESPKEEYPHSFLQESLETMDGVYGSGEVPRPQMCSPKLTAQRISVFREGNAYTLAGGQPRFNDYKANDHKPLPIIDFGKIIIYTNNLKIIRTPMDKRDFVRKILQKEEEAEEESLMNKEESYGGRDQHDRPLVEAESTLPQNRYTQEGDIPEDSCFHCRGSGSATCSLCHGSKFSMLANRFKESYRALRCPACNENGLQPCQICNQ | binds |
| BLOC1S2 (protein, UniProt Q6QNY1 1-142) MAAAAEGVLATRSDEPARDDAAVETAEEAKEPAEADITELCRDMFSKMATYLTGELTATSEDYKLLENMNKLTSLKYLEMKDIAINISRNLKDLNQKYAGLQPYLDQINVIEEQVAALEQAAYKLDAYSKKLEAKYKKLEKR | binds |

More lines, now with the values ahead:

| binding | Molecule |
| --- | --- |
| binds | Progranulin (from UniProt P28799 18-593) |
| binds | PRMT1 (from UniProt Q99873 1-371) |

Results are given in words; binding and its absence hold for the method and conditions named. Binding seen in cells or lysates may run through a third protein. A yes stands for co-enrichment or nearness to the bait. Other partners may have been found.
